Experimental data reported in the supplement of paper PMC10849652.
The other results are listed elsewhere or left out.

Sequences of proteins named here, by UniProt entry; tags and fusion partners are left off. A change or cut given only in a name is not applied to a line headed by its entry.
UniProt Q0VDI3: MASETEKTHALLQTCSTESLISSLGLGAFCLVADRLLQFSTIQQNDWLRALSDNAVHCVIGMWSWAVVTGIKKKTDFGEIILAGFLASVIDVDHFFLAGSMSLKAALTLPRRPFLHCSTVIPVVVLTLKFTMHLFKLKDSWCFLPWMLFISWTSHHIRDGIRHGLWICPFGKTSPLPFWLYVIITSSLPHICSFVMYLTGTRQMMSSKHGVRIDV
UniProt Q9HBL0: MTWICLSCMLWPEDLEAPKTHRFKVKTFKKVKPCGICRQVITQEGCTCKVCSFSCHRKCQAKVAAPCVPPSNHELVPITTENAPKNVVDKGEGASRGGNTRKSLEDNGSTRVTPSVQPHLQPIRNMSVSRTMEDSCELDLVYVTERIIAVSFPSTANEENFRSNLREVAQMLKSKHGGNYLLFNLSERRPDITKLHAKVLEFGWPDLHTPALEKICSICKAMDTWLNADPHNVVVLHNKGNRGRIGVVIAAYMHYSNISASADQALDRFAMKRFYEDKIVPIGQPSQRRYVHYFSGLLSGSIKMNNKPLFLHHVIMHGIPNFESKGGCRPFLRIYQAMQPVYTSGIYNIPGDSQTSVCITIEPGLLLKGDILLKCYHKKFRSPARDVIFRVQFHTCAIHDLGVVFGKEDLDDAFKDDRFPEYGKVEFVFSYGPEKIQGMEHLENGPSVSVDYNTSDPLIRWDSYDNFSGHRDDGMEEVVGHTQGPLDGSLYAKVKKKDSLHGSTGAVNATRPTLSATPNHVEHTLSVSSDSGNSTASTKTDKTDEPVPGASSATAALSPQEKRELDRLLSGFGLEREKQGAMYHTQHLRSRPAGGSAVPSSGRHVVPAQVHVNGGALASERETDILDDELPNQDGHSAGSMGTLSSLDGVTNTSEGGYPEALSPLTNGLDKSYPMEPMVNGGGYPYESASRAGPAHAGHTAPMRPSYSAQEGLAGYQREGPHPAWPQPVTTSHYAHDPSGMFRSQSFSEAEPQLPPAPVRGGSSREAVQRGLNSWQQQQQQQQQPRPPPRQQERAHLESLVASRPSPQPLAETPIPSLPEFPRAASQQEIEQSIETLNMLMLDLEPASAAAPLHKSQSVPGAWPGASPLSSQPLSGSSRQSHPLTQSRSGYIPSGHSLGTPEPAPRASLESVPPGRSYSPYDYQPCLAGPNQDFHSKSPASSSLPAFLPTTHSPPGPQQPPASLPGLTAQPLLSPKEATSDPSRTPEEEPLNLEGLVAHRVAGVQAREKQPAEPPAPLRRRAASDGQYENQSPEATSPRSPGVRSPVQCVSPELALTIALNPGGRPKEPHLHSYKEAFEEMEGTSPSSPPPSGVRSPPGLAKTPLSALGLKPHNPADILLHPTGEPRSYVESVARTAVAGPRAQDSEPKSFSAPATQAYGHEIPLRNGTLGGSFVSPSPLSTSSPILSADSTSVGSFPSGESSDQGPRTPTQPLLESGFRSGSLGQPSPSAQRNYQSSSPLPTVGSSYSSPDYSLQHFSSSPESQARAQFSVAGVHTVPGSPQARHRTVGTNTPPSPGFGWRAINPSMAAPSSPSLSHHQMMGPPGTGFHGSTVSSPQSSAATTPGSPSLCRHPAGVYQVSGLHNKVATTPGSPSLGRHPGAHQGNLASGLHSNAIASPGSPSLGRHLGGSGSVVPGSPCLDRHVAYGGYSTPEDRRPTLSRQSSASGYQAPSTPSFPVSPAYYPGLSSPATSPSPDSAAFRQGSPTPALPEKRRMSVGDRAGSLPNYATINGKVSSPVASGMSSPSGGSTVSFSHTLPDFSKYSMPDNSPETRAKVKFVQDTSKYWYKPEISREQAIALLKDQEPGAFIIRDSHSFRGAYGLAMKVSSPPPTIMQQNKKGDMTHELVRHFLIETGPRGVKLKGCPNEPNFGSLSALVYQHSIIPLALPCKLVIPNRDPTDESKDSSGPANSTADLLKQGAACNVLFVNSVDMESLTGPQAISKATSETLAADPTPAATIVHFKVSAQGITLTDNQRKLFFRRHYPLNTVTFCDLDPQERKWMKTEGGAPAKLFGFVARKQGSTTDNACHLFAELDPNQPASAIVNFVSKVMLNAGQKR
UniProt Q9H1E5: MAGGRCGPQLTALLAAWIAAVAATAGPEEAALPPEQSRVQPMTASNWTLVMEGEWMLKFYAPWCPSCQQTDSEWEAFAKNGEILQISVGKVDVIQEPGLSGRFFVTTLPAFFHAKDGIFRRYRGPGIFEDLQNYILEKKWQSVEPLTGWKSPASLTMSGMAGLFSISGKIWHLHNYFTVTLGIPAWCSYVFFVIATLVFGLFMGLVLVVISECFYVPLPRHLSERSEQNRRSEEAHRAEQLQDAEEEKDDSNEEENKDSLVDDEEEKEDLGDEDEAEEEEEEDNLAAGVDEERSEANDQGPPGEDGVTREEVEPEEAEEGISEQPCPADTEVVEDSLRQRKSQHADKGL
UniProt Q96B49: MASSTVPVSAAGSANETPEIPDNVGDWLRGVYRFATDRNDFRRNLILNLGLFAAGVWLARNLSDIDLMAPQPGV
UniProt Q07912: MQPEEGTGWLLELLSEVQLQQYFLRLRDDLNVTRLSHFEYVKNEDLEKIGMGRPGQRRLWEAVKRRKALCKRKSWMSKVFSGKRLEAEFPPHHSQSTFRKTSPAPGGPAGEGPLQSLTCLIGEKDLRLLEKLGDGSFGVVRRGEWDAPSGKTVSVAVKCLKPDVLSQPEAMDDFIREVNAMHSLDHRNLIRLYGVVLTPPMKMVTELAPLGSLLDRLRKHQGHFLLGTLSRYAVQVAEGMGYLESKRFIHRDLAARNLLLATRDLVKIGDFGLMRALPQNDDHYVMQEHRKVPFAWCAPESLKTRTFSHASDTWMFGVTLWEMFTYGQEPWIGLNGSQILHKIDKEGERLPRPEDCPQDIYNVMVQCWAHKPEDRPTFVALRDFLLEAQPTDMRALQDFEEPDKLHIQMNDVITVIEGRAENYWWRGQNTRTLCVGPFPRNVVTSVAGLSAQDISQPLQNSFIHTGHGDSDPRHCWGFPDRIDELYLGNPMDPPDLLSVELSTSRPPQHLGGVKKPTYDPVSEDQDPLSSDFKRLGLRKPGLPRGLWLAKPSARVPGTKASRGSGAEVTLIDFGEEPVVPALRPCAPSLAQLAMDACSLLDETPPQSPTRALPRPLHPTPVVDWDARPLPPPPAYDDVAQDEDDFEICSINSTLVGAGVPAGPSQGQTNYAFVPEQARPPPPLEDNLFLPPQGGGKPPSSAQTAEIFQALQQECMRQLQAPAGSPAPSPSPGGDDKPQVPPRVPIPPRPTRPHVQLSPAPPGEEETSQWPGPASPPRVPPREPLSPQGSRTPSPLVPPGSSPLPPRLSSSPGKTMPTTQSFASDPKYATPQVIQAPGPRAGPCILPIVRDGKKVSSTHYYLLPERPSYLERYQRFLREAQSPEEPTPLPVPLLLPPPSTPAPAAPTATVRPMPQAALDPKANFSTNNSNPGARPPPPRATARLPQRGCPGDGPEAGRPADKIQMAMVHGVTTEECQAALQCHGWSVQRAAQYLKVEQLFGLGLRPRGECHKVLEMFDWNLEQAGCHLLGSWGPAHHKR
UniProt Q9NWH2: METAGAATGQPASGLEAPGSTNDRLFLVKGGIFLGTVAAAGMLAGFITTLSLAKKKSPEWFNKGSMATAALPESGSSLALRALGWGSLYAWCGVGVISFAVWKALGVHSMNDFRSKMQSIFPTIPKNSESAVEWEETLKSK
UniProt O95271: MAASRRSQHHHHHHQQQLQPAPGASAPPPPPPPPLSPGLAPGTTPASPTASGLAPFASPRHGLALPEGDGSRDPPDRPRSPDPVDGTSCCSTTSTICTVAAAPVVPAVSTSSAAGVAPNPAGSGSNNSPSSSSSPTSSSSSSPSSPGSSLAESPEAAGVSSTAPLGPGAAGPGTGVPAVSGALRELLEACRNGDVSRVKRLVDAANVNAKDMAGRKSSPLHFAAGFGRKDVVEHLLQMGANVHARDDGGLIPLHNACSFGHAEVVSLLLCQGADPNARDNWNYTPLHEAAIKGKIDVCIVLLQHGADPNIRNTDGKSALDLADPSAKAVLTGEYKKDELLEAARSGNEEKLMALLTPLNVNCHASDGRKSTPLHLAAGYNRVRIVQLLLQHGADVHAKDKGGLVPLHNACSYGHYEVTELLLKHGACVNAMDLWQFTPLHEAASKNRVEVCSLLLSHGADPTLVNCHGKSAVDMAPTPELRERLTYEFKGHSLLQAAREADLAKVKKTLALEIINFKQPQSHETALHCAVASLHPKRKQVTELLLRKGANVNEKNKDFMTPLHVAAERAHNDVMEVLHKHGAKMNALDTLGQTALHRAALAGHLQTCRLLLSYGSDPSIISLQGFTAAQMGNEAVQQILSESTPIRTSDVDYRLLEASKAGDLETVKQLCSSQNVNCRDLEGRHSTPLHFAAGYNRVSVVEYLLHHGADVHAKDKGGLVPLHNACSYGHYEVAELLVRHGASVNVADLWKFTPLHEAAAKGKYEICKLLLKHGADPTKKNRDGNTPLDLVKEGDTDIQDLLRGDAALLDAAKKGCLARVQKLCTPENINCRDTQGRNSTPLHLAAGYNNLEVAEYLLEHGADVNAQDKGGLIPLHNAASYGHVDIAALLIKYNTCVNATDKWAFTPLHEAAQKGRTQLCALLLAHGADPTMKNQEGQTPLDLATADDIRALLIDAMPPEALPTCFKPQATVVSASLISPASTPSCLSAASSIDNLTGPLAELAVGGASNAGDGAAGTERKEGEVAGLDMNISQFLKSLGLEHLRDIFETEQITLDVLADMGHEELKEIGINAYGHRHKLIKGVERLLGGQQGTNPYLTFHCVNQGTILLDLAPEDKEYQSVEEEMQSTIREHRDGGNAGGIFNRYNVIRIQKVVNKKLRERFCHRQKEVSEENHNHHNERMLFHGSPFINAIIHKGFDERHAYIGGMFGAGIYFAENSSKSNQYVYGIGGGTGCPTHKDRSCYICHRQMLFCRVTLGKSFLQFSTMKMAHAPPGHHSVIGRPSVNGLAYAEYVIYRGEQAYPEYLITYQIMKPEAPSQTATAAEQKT
UniProt Q9NWD8: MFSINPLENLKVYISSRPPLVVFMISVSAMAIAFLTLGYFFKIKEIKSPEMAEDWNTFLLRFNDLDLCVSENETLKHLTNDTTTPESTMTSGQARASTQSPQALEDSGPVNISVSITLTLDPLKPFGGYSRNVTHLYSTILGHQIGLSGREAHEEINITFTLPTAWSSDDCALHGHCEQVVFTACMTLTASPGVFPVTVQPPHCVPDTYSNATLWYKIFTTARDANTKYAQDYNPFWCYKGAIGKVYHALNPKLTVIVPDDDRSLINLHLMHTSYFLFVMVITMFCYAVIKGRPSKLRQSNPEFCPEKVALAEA
UniProt P02585, whole entry, looked up: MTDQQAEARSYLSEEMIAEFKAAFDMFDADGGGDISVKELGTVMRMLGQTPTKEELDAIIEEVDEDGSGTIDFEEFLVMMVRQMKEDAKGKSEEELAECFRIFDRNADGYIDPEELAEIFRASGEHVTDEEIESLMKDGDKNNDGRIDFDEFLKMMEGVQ
UniProt P06753, whole entry, looked up: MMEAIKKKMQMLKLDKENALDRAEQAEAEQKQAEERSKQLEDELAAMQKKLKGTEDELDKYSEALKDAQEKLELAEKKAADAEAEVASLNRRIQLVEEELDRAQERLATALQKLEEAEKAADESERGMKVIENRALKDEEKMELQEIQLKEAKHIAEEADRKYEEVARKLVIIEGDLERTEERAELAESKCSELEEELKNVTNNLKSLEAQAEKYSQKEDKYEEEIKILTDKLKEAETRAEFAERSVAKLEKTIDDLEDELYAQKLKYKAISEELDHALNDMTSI
UniProt Q86W33: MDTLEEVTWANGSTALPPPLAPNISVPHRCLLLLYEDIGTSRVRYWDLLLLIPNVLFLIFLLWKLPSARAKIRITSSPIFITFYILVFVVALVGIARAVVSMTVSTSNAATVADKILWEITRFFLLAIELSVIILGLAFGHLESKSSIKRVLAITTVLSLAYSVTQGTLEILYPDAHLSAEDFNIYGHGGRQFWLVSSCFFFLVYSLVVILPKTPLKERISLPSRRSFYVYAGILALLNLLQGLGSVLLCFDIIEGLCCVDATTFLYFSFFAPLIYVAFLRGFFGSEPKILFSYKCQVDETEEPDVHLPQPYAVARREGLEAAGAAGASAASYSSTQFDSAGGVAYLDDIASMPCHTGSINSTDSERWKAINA
UniProt Q96Q45: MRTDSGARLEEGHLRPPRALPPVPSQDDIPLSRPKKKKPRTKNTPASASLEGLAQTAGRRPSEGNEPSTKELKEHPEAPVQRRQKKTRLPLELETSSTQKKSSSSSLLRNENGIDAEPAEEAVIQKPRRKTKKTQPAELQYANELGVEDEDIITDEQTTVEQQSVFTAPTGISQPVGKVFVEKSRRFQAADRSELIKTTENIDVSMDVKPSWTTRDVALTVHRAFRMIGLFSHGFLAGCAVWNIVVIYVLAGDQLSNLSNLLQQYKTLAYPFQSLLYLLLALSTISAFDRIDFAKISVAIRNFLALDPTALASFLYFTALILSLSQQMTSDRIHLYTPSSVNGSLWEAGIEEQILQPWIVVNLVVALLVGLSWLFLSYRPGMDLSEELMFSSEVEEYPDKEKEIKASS

What follows are targets tested with CS(=O)(=O)N1CCN(Cc2cc3nc(-c4cccc5[nH]ncc45)nc(N4CCOCC4)c3s2)CC1 [pictilisib] (assay: log2 fold change, soluble protein after heating vs DMSO (PISA); higher = thermal stabilisation; K562 lysate, 10 uM; active = over 0.2 and 3.5 SD of the protein, either way, in both replicates (recomputed)).
In short: (§1)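 Pellets of K562 cells were dounce-homogenised in PBS pH 7.4 with 1 mM MgCl2, and the crude extract was held at 1 mg/mL protein for a 30 min treatment with 10 μM compound. Aliquots were heated for 3 min over 48°C-58°C and pooled before NP-40 was added to 0.5% at 4°C. The supernatant from 21,000xg for 90 min was quantified by TMTpro 16plex LC-MS/MS with channel sums equalised. Values are reported from duplicates as log-two fold change in thermal stability relative to solvent controls.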

Row | Target | log2 fold change
1 | TMEM246 (UniProt Q9BRR3) | inactive: 0.012
2 | TNNC1 (UniProt P63316) | inactive: -2.39
3 | TNFAIP1 (UniProt Q13829) | inactive: -0.177
4 | TMEM273 isoform 2 (UniProt Q5T292) | inactive: -0.056
5 | TMEM267 (UniProt Q0VDI3) | inactive: -0.063
6 | TNS1 (UniProt Q9HBL0) | inactive: -0.132
7 | TOPAZ1 (UniProt Q8N9V7) | inactive: 0.087
8 | TMX4 (UniProt Q9H1E5) | inactive: -0.028
9 | TPD52L2 isoform 3 (UniProt O43399) | inactive: -0.112
10 | TOMM6 (UniProt Q96B49) | inactive: -0.1
11 | TNK2 isoform 3 (UniProt Q07912) | inactive: -0.085
12 | TMEM242 (UniProt Q9NWH2) | inactive: 0.02
13 | TMPO isoform 2 (UniProt P42167) | inactive: 0.04

These targets were tested with C[C@@H](Oc1cc(-c2cnn(C3CCNCC3)c2)cnc1N)c1c(Cl)ccc(F)c1Cl [crizotinib] in the same assay as above.
In short: as §1

Row | Target | log2 fold change
14 | TNKS (UniProt O95271) | inactive: -0.031
15 | TMEM248 (UniProt Q9NWD8) | inactive: -0.107
16 | TMEM250 (UniProt H0YL14) | inactive: -0.037
17 | TNNC2 (UniProt P02585) | inactive: 0.099
18 | TPM3 isoform 3 (UniProt P06753) | inactive: 0.095
19 | TMEM273 isoform 2 (UniProt Q5T292) | inactive: -0.089
20 | TPRN (UniProt Q4KMQ1) | inactive: -0.051
21 | TMEM19 (UniProt Q96HH6) | inactive: 0.067
22 | TMEM267 (UniProt Q0VDI3) | inactive: 0.017
23 | TPBG (UniProt Q13641) | inactive: -0.072
24 | TMEM268 isoform 3 (UniProt Q5VZI3) | inactive: -0.051
25 | TNS1 (UniProt Q9HBL0) | inactive: -0.043
26 | TMX4 (UniProt Q9H1E5) | inactive: 0.002
27 | TPRA1 (UniProt Q86W33) | inactive: -0.008
28 | TNK2 isoform 3 (UniProt Q07912) | inactive: 0.324
29 | TMEM242 (UniProt Q9NWH2) | inactive: 0.031
30 | TMEM237 isoform 3 (UniProt Q96Q45) | inactive: -0.103
31 | TMEM35B (UniProt Q8NCS4) | inactive: -0.101
32 | TPRG1L (UniProt Q5T0D9) | inactive: -0.098

What follows are targets tested with C[C@H](C1=CC=C(C=C1)C(=O)NC2=C3C=CNC3=NC=C2)N in the same assay as above.
In short: as §1

Row | Target | log2 fold change
33 | TMEM98 (UniProt Q9Y2Y6) | inactive: 0.004
34 | TNKS (UniProt O95271) | active: -0.302
35 | TMEM248 (UniProt Q9NWD8) | inactive: 0.051
36 | TNNC2 (UniProt P02585) | inactive: -0.181
37 | TNNC1 (UniProt P63316) | inactive: -1.58
38 | TPM3 isoform 3 (UniProt P06753) | active: -0.411
39 | TNFAIP1 (UniProt Q13829) | inactive: -0.049
40 | TMEM267 (UniProt Q0VDI3) | inactive: -0.013
41 | TNFSF9 (UniProt P41273) | inactive: 0.138
42 | TMEM268 isoform 3 (UniProt Q5VZI3) | inactive: 0.181
43 | TNS1 (UniProt Q9HBL0) | inactive: -0.188
44 | TMX4 (UniProt Q9H1E5) | inactive: -0.034
45 | TPD52L2 isoform 3 (UniProt O43399) | inactive: -0.155
46 | TPRA1 (UniProt Q86W33) | inactive: 0.224
47 | TOMM6 (UniProt Q96B49) | inactive: 0.235
48 | TNK2 isoform 3 (UniProt Q07912) | inactive: 0.049
49 | TMEM242 (UniProt Q9NWH2) | inactive: -0.129
50 | TMEM59 (UniProt Q9BXS4) | inactive: 0.036
51 | TMEM237 isoform 3 (UniProt Q96Q45) | inactive: -0.063
52 | TPRG1L (UniProt Q5T0D9) | inactive: -0.019

These targets were tested with C[C@H](Nc1ncnc2nc[nH]c12)c1cc2cccc(Cl)c2c(=O)n1-c1ccccc1 [duvelisib] in the same assay as above.
In short: as §1

Row | Target | log2 fold change
53 | TNKS (UniProt O95271) | inactive: -0.027
54 | TMTC4 isoform 3 (UniProt Q5T4D3) | inactive: 0.009
55 | TMEM248 (UniProt Q9NWD8) | inactive: 0.021
56 | TNNC2 (UniProt P02585) | inactive: -0.009
57 | TPM3 isoform 3 (UniProt P06753) | inactive: 0.011
58 | TPRN (UniProt Q4KMQ1) | inactive: -0.02
59 | TPBG (UniProt Q13641) | inactive: -0.033
60 | TMEM268 isoform 3 (UniProt Q5VZI3) | inactive: 0.251
61 | TMX4 (UniProt Q9H1E5) | inactive: 0.025
62 | TPRA1 (UniProt Q86W33) | inactive: 0.103
63 | TOMM6 (UniProt Q96B49) | inactive: -0.009
64 | TMEM242 (UniProt Q9NWH2) | inactive: 0.023
65 | TMPO isoform 2 (UniProt P42167) | inactive: -0.041
66 | TMEM256 (UniProt Q8N2U0) | inactive: -0.147
67 | TMEM237 isoform 3 (UniProt Q96Q45) | inactive: 0.058
68 | TPRG1L (UniProt Q5T0D9) | inactive: 0.079
